# PubChem BioAssay AID652243 | Drosophila RNAi Screening Center, 2013
# Test: 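Fly regulators of androgen-dependent reporter output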 (primary screen)
# Cells: Drosophila S2R+ cells
# Reagents: long dsRNA against Drosophila genes
# Duration: 72 h (48 h, then 24 h hormone)
# Conditions: synthetic androgen R1881 at 10 nM for 24 h
# Read-out: 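Firefly light from an androgen-responsive reporter and Renilla control light per well, raw and unnormalised, for each of two replicates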
# Direction: firefly reporter light: higher = more light from androgen-responsive reporter; Renilla control light: higher = more constitutive control signal (cell number, transfection)
# Call rule: 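Hit when the log firefly-to-Renilla ratio dropped or increased by a fixed fold versus the mean of GFP or LacZ controls across duplicate plates; lowering cut given as 1.5 and as 3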
# Calls: active = hit: reporter lowered or raised; inactive = no hit
# The deposit covers about 24,000 reagents; below is an unselected part of those with a known target gene and a result. In the full data, 246 (1%) are marked active. 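Plates not normalised; calls are printed but the firefly/Renilla ratio behind them is not deposited; fold cut for lowering reported inconsistently.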 Raw values are not corrected between plates. A plus sign joins genes that one reagent is predicted to hit. Not given: the amount of reagent.
target,DRSC id,"firefly reporter light, replicate 1","firefly reporter light, replicate 2","Renilla control light, replicate 1","Renilla control light, replicate 2",activity call
PH4alphaSG1,DRSC15080,1.47e5,1.84e5,2.59e6,2.77e6,inactive
prel,DRSC07271,8.42e5,4.60e5,2.49e6,1.78e6,inactive
Tbcc,DRSC00223,2.44e5,1.32e5,6.74e5,5.00e5,inactive
Tbcc,DRSC30109,1.08e6,1.08e6,9.00e5,1.17e6,inactive
CG13742 + CNT1,DRSC06413,4.72e5,2.82e5,2.00e6,1.75e6,inactive
CG13742 + CNT1,DRSC28676,5.11e5,4.79e5,2.29e6,1.35e6,inactive
l(3)72Dn,DRSC10468,36134,38077,4.37e5,3.71e5,inactive
Tbca,DRSC15395,51130,66758,4.93e5,3.64e5,inactive
Tbca,DRSC29064,6.07e5,4.63e5,1.33e6,1.30e6,inactive
CG15767,DRSC18073,3.05e5,4.56e5,1.49e6,1.38e6,inactive
CG15767,DRSC29131,8.40e5,6.04e5,1.44e6,1.13e6,inactive
Nsun2,DRSC18662,5.44e5,8.02e5,1.80e6,2.36e6,inactive
Nsun2,DRSC28657,5.15e5,5.40e5,1.53e6,1.54e6,inactive
snRNA:U11,DRSC36526,6.86e5,5.41e5,1.48e6,1.28e6,inactive
Cog4,DRSC03057,1.38e6,1.31e6,2.65e6,2.87e6,inactive
Cals,DRSC17196,1.16e5,1.13e5,1.16e6,6.87e5,inactive
Cals,DRSC21661,7.73e5,1.01e6,1.67e6,1.67e6,inactive
CG32087,DRSC10806,2.35e5,94740,2.02e6,1.23e6,inactive
CG32087,DRSC24793,6.26e5,5.12e5,7.07e5,6.42e5,inactive
CG8673,DRSC03105,1.61e5,2.28e5,1.47e6,1.31e6,inactive
CG32767,DRSC18386,64450,72206,2.04e6,1.76e6,inactive
CG32767,DRSC23721,5.45e5,8.79e5,9.49e5,1.25e6,inactive
CG10931,DRSC06015,65264,42098,1.37e6,1.37e6,inactive
CG30049,DRSC21345,7.94e5,6.88e5,2.76e6,2.20e6,inactive
CG30049,DRSC26709,2.17e5,2.02e5,7.91e5,5.87e5,inactive
Ugt316A1,DRSC10376,2.51e5,1.49e5,2.81e6,2.05e6,inactive
eIF3a,DRSC12339,74629,1.02e5,2.23e6,1.52e6,inactive
eIF3a,DRSC28481,4.06e5,5.87e5,4.61e5,9.69e5,inactive
CG11191,DRSC23224,6.87e5,8.14e5,1.13e6,8.92e5,inactive
CG11191,DRSC28710,4.50e5,3.12e5,1.18e6,9.29e5,inactive
swm,DRSC02012,2.95e5,3.87e5,3.21e6,3.04e6,inactive
swm,DRSC21831,1.16e5,1.00e5,1.15e6,1.21e6,inactive
CG13492,DRSC04137,1.82e5,2.23e5,1.89e6,1.19e6,inactive
CHES-1-like,DRSC18447,1.23e5,1.56e5,2.82e6,2.25e6,inactive
CG9072,DRSC20147,2.06e5,3.06e5,2.47e6,2.84e6,inactive
CG12984,DRSC11693,1.71e5,1.89e5,1.42e6,2.17e6,inactive
CG1146,DRSC08189,7.14e5,5.16e5,1.12e6,8.95e5,inactive
CG1146,DRSC25486,8.72e5,9.04e5,9.54e5,8.59e5,inactive
alpha-Man-Ic,DRSC21674,8.17e5,9.45e5,1.54e6,1.69e6,inactive
alpha-Man-Ic,DRSC27509,2.39e5,2.45e5,3.45e5,6.77e5,inactive
CSN4,DRSC07350,1.32e5,1.05e5,8.63e5,1.14e6,inactive
Sptr,DRSC18719,94685,97550,5.71e5,5.54e5,inactive
CG34199,DRSC05867,7.50e5,8.77e5,1.20e6,1.20e6,inactive
CG34199,DRSC28143,6.20e5,5.62e5,1.39e6,1.14e6,inactive
MstProx,DRSC12458,2.12e5,2.18e5,4.45e5,4.53e5,inactive
MstProx,DRSC12601,39129,51931,1.53e6,1.00e6,inactive
Pfrx,DRSC18856,1.62e5,2.08e5,7.01e5,6.26e5,inactive
Pfrx,DRSC19315,6.73e5,6.71e5,1.09e6,8.08e5,active
Pfrx,DRSC28602,3.54e5,3.43e5,1.41e6,1.02e6,inactive
CG5388,DRSC15789,1.10e5,90396,2.45e6,2.59e6,inactive
CG31910,DRSC28186,9.37e5,9.05e5,1.66e6,1.71e6,inactive
snz,DRSC17969,2.88e5,3.05e5,1.23e6,1.80e6,inactive
CG14301,DRSC14780,2.17e5,3.79e5,3.26e6,4.18e6,inactive
Nprl3,DRSC11044,8.86e5,1.03e6,1.55e6,2.00e6,inactive
l(2)34Fd,DRSC01911,7.45e5,9.21e5,1.44e6,1.89e6,inactive
pins,DRSC17043,1.44e5,1.34e5,1.78e6,2.72e6,inactive
APC4,DRSC18360,1.10e5,50954,6.10e5,4.47e5,inactive
APC4,DRSC29994,3.85e5,4.54e5,1.01e6,1.17e6,inactive

Only “Renilla control light, replicate 1” (9 entries from above):
alpha-Man-Ic [DRSC27509] = 3.45e5
CSN4 [DRSC07350] = 8.63e5
Sptr [DRSC18719] = 5.71e5
CG34199 [DRSC05867] = 1.20e6
CG34199 [DRSC28143] = 1.39e6
MstProx [DRSC12458] = 4.45e5
MstProx [DRSC12601] = 1.53e6
Pfrx [DRSC18856] = 7.01e5
Pfrx [DRSC19315] = 1.09e6
